Results are given in words; binding and its absence hold for the method and conditions named. Binding seen in cells or lysates may run through a third protein. A yes stands for co-enrichment or nearness to the bait. Other partners may have been found.
Legend:
[1] = biological target: T1, endogenous CED-1 (C. elegans (endogenous in whole animal lysate)) (UniProt Q9XWD6); experiment: affinity purification with mass spectrometry; immunoprecipitation with CED-1C or CED-6 antibodies from whole cell lysates of N2, ced-1(e1735) and ced-6(n1813) animals; precipitates on SDS-PAGE, gel regions analysed by LC-MS/MS
T1 sequence: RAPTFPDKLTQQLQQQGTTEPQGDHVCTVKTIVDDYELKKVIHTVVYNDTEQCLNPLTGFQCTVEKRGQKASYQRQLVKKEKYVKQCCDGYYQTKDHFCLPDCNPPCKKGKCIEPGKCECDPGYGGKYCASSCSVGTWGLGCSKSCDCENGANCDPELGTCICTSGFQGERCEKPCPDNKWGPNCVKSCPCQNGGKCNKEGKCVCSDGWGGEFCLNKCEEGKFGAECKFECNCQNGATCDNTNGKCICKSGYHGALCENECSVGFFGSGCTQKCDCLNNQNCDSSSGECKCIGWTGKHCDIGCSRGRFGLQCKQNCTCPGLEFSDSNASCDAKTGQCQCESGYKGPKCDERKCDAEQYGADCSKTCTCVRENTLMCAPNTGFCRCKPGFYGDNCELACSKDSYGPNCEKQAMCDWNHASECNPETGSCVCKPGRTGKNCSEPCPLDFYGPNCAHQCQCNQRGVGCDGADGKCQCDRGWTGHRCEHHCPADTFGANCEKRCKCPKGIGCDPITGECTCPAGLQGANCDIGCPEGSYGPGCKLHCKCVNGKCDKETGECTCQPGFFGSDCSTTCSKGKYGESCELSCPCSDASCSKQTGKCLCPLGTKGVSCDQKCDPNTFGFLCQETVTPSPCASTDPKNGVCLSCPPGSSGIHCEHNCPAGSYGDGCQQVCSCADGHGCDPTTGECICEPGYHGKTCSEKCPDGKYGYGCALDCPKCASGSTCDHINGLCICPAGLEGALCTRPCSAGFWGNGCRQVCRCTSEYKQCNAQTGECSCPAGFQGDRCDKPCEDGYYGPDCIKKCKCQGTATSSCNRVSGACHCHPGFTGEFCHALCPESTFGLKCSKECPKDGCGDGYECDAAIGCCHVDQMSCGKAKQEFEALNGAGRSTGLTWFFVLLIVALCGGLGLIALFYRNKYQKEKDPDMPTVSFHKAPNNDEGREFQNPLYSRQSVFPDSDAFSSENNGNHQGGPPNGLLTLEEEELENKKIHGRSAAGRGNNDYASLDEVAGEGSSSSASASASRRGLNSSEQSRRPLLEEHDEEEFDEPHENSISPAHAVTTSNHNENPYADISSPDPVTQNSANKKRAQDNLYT

Sequences of proteins named here, by UniProt entry; tags and fusion partners are left off.
UniProt P34574: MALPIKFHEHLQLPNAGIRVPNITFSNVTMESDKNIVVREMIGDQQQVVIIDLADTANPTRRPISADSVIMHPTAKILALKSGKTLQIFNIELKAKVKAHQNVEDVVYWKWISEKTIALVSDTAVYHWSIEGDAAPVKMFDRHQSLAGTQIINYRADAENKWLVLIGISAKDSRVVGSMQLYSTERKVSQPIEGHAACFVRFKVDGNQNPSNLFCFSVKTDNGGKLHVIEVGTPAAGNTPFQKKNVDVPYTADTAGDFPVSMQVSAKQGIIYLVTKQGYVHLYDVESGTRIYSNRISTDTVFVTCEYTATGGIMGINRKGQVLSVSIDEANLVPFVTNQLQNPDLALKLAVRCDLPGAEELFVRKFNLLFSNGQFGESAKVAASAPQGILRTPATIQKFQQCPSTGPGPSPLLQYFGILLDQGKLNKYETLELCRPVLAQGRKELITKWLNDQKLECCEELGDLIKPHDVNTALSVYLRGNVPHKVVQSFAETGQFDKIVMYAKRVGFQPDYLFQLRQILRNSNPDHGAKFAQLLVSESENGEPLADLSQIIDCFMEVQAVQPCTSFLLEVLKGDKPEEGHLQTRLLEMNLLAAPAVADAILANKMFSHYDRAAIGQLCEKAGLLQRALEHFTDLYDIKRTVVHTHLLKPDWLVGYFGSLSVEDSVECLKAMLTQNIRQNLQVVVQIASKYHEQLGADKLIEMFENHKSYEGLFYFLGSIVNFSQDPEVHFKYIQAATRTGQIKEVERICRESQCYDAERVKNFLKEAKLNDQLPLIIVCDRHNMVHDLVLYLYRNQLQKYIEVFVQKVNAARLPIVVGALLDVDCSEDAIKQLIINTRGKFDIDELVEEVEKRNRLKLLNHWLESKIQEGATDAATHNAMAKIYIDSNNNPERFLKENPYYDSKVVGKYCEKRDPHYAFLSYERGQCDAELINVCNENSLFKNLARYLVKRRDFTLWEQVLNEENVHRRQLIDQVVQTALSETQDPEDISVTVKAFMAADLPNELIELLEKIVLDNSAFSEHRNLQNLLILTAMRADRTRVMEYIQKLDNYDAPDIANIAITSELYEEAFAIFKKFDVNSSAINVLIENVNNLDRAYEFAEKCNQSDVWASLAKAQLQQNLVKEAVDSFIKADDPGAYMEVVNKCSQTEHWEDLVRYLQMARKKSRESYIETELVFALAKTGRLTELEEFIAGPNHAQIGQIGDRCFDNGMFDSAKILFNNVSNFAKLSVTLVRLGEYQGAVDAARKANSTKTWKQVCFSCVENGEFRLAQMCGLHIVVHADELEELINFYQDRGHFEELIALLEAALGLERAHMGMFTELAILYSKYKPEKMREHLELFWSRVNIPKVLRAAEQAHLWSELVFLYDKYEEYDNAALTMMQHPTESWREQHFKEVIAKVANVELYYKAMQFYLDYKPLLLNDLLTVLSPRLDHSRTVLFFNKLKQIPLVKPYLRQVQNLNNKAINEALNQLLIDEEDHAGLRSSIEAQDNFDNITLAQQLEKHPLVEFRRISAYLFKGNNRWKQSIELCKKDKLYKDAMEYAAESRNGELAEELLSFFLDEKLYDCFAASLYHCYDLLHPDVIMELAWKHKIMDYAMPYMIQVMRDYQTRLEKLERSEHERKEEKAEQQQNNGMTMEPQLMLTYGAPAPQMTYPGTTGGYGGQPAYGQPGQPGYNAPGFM

[2] = biological target: T2, endogenous CED-6 (C. elegans (endogenous in whole animal lysate)) (UniProt O76337); experiment: as above
T2 sequence: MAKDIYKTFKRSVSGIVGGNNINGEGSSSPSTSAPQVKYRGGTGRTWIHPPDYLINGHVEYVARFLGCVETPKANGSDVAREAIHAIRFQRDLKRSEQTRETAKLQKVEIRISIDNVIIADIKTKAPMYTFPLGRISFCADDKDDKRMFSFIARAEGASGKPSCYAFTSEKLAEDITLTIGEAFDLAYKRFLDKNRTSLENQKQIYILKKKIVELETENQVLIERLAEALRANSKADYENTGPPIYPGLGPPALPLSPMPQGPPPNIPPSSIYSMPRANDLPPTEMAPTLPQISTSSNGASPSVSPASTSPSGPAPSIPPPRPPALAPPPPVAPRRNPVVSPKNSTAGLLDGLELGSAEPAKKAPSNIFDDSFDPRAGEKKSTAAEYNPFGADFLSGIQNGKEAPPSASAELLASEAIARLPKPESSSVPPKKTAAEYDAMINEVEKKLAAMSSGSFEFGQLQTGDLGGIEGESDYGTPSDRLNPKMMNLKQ

heavy chain of clathrin (CHC-1), endogenous (from UniProt P34574 1-1681)
binding [1]: binds
binding [2]: binds

Source: PMC3656144
